Experimental findings from PubChem BioAssay AID234 (DTP/NCI, 2004) are described below.

The list does not hold the whole screen: it covers a few groups of compounds. Not every dose and run of a compound is shown. T/C gives the treated animals as a percentage of the vehicle group. Some T/C values are marked as having no survivor count here; that says nothing about deaths at the dose. Schedule codes are those of the source, read here as Q, the interval in days (D) or hours (H), X, the number of doses. Some doses were run more than once; the values are given in rising order.

The assay deals with C3AKF1 mice, hamster liver cystadenocarcinoma s.c., tumor weight T/C. Put plainly: NCI In Vivo Anticancer Drug Screen. Data for tumor model Cystadenocarcinoma, Liver (No. 1) (Hamster) (subcutaneous) in C3AKF1 (CHKRF1) mice. The conditions noted are these: T/C endpoint: mean tumor weight, schedule: Q01DX010 (ip), evaluation day not shown, higher T/C = larger tumour. The method, then: The antitumor activity of compounds was measured in mice bearing transplantable tumors. Survival or tumor size were measured and the results are expressed as the measurement made in the treated group (T) divided by the measurement made in the vehicle treated control group (C). The tumor model used in this assay is Cystadenocarcinoma, Liver (No. 1) (Hamster) (subcutaneous) in C3AKF1 (CHKRF1) mice

Take `COCc1c(CN(CCCl)CCCl)cnc(C)c1O`: the T/C runs as follows: (dose: 1.25 mg/kg/injection, vehicle: carboxymethylcellulose (CMC)) 137 % of control [survivor count not shown]; (dose: 2.5 mg/kg/injection, vehicle: carboxymethylcellulose (CMC)) 104 % of control [survivor count not shown]; (dose: 5.0 mg/kg/injection, vehicle: carboxymethylcellulose (CMC)) 86 % of control [survivor count not shown]; (dose: 10.0 mg/kg/injection, vehicle: carboxymethylcellulose (CMC)) 108 % of control [survivor count not shown].

With `Cc1cc2nc(CN(CCCl)CCCl)[nH]c2cc1C`, the T/C is 81 % of control [survivor count not shown] (dose: 7.0 mg/kg/injection, vehicle: carboxymethylcellulose (CMC)); 107 [survivor count not shown] and 108 % of control [survivor count not shown] (dose: 15.0 mg/kg/injection, vehicle: carboxymethylcellulose (CMC)); 63 [survivor count not shown] and 82 % of control [survivor count not shown] (dose: 30.0 mg/kg/injection, vehicle: carboxymethylcellulose (CMC)).

`ClCCCCC(CCl)NCCCl` (stereo not given): the T/C (dose: 8.7 mg/kg/injection, vehicle: saline) is 94 % of control [survivor count not shown]; the T/C (dose: 17.5 mg/kg/injection, vehicle: saline) is 110 % of control [survivor count not shown]; the T/C (dose: 35.0 mg/kg/injection, vehicle: saline) was 105 % of control [survivor count not shown].
